Measured values: the DeepSol protein solubility set

Test: soluble on expression in E. coli; label from the status in PepcDB or PDB records

| Sequence | soluble on expression in E. coli |
| --- | --- |
| MGHHHHHHSHMEAPEVEPRLVYCYPVRLAVSAPPMPSVEMHMENNVVCIRYKGEMVKVSRNYFSKLWLLYRYSCIDDSAFERFLPRVWCLLRRYQMMFGVGLYEGTGLQGSLPVHVFEALHRLFGVSFECFASPLNCYFRQYCSAFPDTDGYFGSRGPCLDFAPLSGSFEANPPFCEELMDAMVSHFERLLESSPEPLSFIVFIPEWREPPTPALTRMEQSRFKRHQLILPAFEHEYRSGSQHICKKWVPGRAGEGGWAGQARPSPTLSHCLCPQGGNALQGRPQHGCALPTERPWLCQVGADA | soluble |
| GRFTREGIEALEDIAKNIGEAMLRKQAEEKLVASERFLRMLTNQLPGMVGYWDRDLRCRFANDAYKEWFGRSPEQIIGLTVQELMGEELFRLSEPYIRGALQGEPQNFERELVKPNGETGYTWAQYIPDMVND | not soluble |
| MSLSRPRSQYNTKLFNGDLETFVKDSGQVIPLIVESCIRFINLYGLQHQGIFRVSGSQVEVNDIKNSFERGENPLADDQSNHDINSVAGVLKLYFRGLENPLFPKERFNDLISCIRIDNLYERALHIRKLLLTLPRSVLIVMRYLFAFLNHLSQYSDENMMDPYNLAICFGPTLMPVPEIQDQVSCQAHVNEIIKTIIIHHETIFPDAKELDGPVYEKCMAGDDYCDSPYSEHGTLEEVDQDAGTEPHTSEDECEPIEAIAKFDYVGRSARELSFKKGASLLLYHRASEDWWEGRHNGIDGLVPHQYIVVQDMDDTFSDEGHHHHHH | soluble |
| MEKYNPHAIEAKWQRFWEEKGFMKAKDLPGGRGKQYVLVMFPYPSGDLHMGHLKNYTMGDVLARFRRMQGYEVLHPMGWDAFGLPAENAALKFGVHPKDWTYANIRQAKESLRLMGILYDWDREVTTCEPEYYRWNQWIFLKMWEKGLAYRAKGLVNWCPKCQTVLANEQVVEGRCWRHEDTPVEKRELEQWYLRITAYAERLLKDLEGLNWPEKVKAMQRAWIGRSEGAEILFPVEGKEVRIPVFTTRPDTLFGATFLVLAPEHPLTLELAAPEKREEVLAYVEAAKRKTEIERQAEGREKTGVFLGAYALNPATGERIPIWTADYVLFGYGTGAIMAVPAHDQRDYEFARKFGLPIKKVIERPGEPLPEPLERAYEEPGIMVNSGPFDGTESEEGKRKVIAWLEEKGLGKGRVTYRLRDWLISRQRYWGTPIPMVHCEACGVVPVPEEELPVLLPDLKDVEDIRPKGKSPLEAHPEFYETTCPKCGGPAKRDTDTMDTFFDSSWYYLRYTDPHNDRLPFDPEKANAWMPVDQYIGGVEHAVLHLLYSRFFTKFLHDLGMVKVEEPFQGLFTQGMVLAWTDFGPVEVEGSVVRLPEPTRIRLEIPESALSLEDVRKMGAELRPHEDGTLHLWKPAVMSKSKGNGVMVGPFVKEQGADIARITILFAAPPENEMVWTEEGVQGAWRFLNRIYRRVAEDREALLETSGVFQAEALEGKDRELYGKLHETLKKVTEDLEALRFNTAIAALMEFLNALYEYRKDRPVTPVYRTAIRYYLQMLFPFAPHLAEELWHWFWPDSLFEAGWPELDEKALEKDVVEVAVQVNGRVRGTIHIPKDAPLEVARAEALKVRNVRAHLEGKEVVKEIYVPGKILNLVVRG | soluble |
| MAQASDSTAMEVEEATNQTVKKRFEVKKWSAVALWAWDIQVDNCAICRNHIMDLCIECQANQAAGLKDECTVAWGNCNHAFHFHCISRWLKTRQVCPLDNREWEFQKYGH | not soluble |
| MAGSREVVAMDCEMVGLGPHRESGLARCSLVNVHGAVLYDKFIRPEGEITDYRTRVSGVTPQHMVGATPFAVARLEILQLLKGKLVVGHDLKHDFQALKEDMSGYTIYDTSTDRLLWREAKLDHCRRVSLRVLSERLLHKSIQNSLLGHSSVEDARATMELYQISQRIRARRGLPRLAVSDLEHHHHHH | soluble |
| MEFKYNGKVESVELNKYSKTLTQDPTQPATQAMYYGIGFKDEDFKKAQVGIVSMDWDGNPCNMHLGTLGSKIKSSVNQTDGLIGLQFHTIGVSDGIANGKLGMRYSLVSREVIADSIETNAGAEYYDAIVAIPGCDKNMPGSIIGMARLNRPSIMVYGGTIEHGEYKGEKLNIVSAFESLGQKITGNISDEDYHGVICNAIPGQGACGGMYTANTLAAAIETLGMSLPYSSSNPAVSQEKQEECDEIGLAIKNLLEKDIKPSDIMTKEAFENAITIVMVLGGSTNAVLHIIAMANAIGVEITQDDFQRISDITPVLGDFKPSGKYMMEDLHKIGGLPAVLKYLLKEGKLHGDCLTVTGKTLAENVETALDLDFDSQDIMRPLKNPIKATGHLQILYGNLAQGGSVAKISGKEGEFFKGTARVFDGEQHFIDGIESGRLHAGDVAVIRNIGPVGGPGMPEMLKPTSALIGAGLGKSCALITDGRFSGGTHGFVVGHIVPEAVEGGLIGLVEDDDIIEIDAVNNSISLKVSDEEIAKRRANYQKPTPKATRGVLAKFAKLTRPASEGCVTDLLEHHHHHH | soluble |
| MAQAEVLNLESGAKQVLQETFGYQQFRPGQEEIIDTVLSGRDCLVVMPTGGGKSLCYQIPALLLNGLTVVVSPLISLMKDQVDQLQANGVAAACLNSTQTREQQLEVMTGCRTGQIRLLYIAPERLMLDNFLEHLAHWNPVLLAVDEAHCISQWGHDFRPEYAALGQLRQRFPTLPFMALTATADDTTRQDIVRLLGLNDPLIQISSFDRPNIRYMLMEKFKPLDQLMRYVQEQRGKSGIIYCNSRAKVEDTAARLQSKGISAAAYHAGLENNVRADVQEKFQRDDLQIVVATVAFGMGINKPNVRFVVHFDIPRNIESYYQETGRAGRDGLPAEAMLFYDPADMAWLRRCLEEKPQGQLQDIERHKLNAMGAFAEAQTCRRLVLLNYFGEGRQEPCGNCDICLDPPKQYDGSTDAQIALSTIGRVNQRFGMGYVVEVIRGANNQRIRDYGHDKLKVYGMGRDKSHEHWVSVIRQLIHLGLVTQNIAQHSALQLTEAARPVLRGESSLQLAVPRIVALKPKAM | soluble |
| MGHHHHHHSHMSEDSEKEDYSDRTISDEDESDEDMFMKFVSEDLHRCALLTADSFGDPFFPRTTQILLEYQLGRWVPRLREPRDLYGVSSSGPLSPTRWPYHCEVIDEKVQHIDGVSCWSESHQAGAQWCDLGSLQPPPPRFKRFACFSLLSSRDYRRVPPRPANFVFLVETGFHHVGQDGLRLLTS | not soluble |
| MEYKRQSNGGSGGGGRQLNNTCNSNISVPNAFSPRSYSSRGTEIWSVATSGSSNSTTELQGAQSPSMGSRVSDSHLLTLGSDSRSVSNNLNIAATMAEPNLEEHLKGVLHKKEAAKLTSPSDFTLYYRVTKGQSKSEVATTIPLFICYRNADNQVSNFRVVQVLTENNSMWWTVIINKQHTQMFRRLSDLVRCYHSYRYINPETGGSEIFPISKCSSQVPTNP | not soluble |
| MSHRTSSTFRAERSFHSSSSSSSSSTSSSASRALPAQDPPMEKALSMFSDDFGSFMRPHSEPLAFPARPGGAGNIKTLGDAYEFAVDVRDFSPEDIIVTTSNNHIEVRAEKLAADGTVMNTFAHKCQLPEDVDPTSVTSALREDGSLTIRARRHPHTEHVQQTFRTEIKI | soluble |
| MGNCAKRPWRRGPKDPLQWLGSPPRGSCPSPSSSPKEQGDPAPGVQGYSVLNSLVGPACIFLRPSIAATQLDRELRPEEIEELQVAFQEFDRDQDGYIGCRELGACMRTLGYMPTEMELIEISQQISGGKVDFEDFVELMGPKLLAETADMIGVRELRDAFREFDTNGDGRISVGELRAALKALLGERLSQREVDEILQDVDLNGDGLVDFEEFVRMMSRLEHHHHHH | not soluble |
| MSLSPNPLLQVRNLSVSFTTNDGVVDAVKNVSFDIRPGETLAIVGESGSGKSVSTNALMQLLPKNARIHPESSIMFEGEELLNKTDTQMRRIRGDRIGMIFQEPMTSLNPYMRVGVQVAEAIRCHRNVSQNQAKQRVLELFQLVHLPDPKGAYQKFPHEFSGGQLQRIMIAMALINEPDILIADEPTTALDVTVQAEVLRLIKEIQANMGMAILFITHDLGVVKFVADRVLVMCKGDVVEQGSTEQLFLQPEHDYTRMLINSIPKGSKDPVAVDAAPLLKAEDIRVKFLVKPYFISRRNQYFEAVKGISLELKQGETLGIVGESGSGKSTLGRALIGLLPSTGQIAFKGQDFRALSEKQRLALKKDIQMVFQDPYGSLSPRMTVGEIITEGLLVHQPHISKLERMQRARRALEEVRLDPNSINRYPHEFSGGQRQRIAIARALILEPSFILLDEPTSALDRSVQLTVIELLKEIQKRRNIGYLFISHDLAVVKALSDRVLVMQKGQVMEQGSAESIFHNPQHEYTKKLIAASFDILEENAEGHHHHHH | not soluble |
